pIC50: −log10 of the molar value.
Tests used:
[1] = target: T1, c-erbB-2 (baculovirus expressed, recombinant intracellular domain) (Homo sapiens, UniProt P04626); assay: Substrate phosphorylation assay, c-erbB-2; format: biochemical
T1 construct: baculovirus expressed, recombinant constructs of the intracellular domains of c-erbB-2 and c-erbB-4; made in house
Method: (§1) The substrate phosphorylation assays use baculovirus expressed, recombinant constructs of the intracellular domains of c-erbB-2 and c-erbB-4 that are constitutively active and EGFr isolated from solubilised A431 cell membranes. The method measures the ability of the isolated enzymes to catalyse the transfer of the γ-phosphate from ATP onto tyrosine residues in a biotinylated synthetic peptide (Biotin-[…]. […] The reaction is stopped by the addition of EDTA (final concentration 0.15 mM) and a sample is transferred to a streptavidin-coated 96-well plate. The plate is washed and level of phosphotyrosine on the peptide is determined using a Europium-labelled antiphosphotyrosine antibody and quantified with a time-resolved fluorescence technique.

Protein sequences, listed by entry. Tags and fused reporters are not part of them. Residues count along the entry.
UniProt Q15303, 676-1308 limits assumed: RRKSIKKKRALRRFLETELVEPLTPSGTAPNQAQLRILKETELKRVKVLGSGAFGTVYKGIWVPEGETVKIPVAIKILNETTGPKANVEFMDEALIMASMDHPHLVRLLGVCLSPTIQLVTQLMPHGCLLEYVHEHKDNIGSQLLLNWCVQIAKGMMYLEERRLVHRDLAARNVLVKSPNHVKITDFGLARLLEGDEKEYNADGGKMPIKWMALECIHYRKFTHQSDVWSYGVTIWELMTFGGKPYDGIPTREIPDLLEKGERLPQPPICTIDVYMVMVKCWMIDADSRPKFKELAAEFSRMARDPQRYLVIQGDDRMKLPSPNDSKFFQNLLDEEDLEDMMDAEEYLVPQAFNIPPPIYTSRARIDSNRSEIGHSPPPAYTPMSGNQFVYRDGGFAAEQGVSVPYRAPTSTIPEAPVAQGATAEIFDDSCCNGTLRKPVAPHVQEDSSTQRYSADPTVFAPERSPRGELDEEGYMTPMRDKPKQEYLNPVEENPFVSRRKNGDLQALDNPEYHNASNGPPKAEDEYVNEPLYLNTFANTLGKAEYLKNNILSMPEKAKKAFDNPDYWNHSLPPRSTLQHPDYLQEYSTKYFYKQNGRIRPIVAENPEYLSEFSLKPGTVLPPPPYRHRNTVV

[2] = target: T2, c-erbB-4 (baculovirus expressed, recombinant intracellular domain) (Homo sapiens, UniProt Q15303); assay: Substrate phosphorylation assay, c-erbB-4; format: biochemical
T2 construct: baculovirus expressed, recombinant constructs of the intracellular domains of c-erbB-2 and c-erbB-4; made in house
Method: as §1

[3] = target: HB4a cell line transformed by over-expression of c-erbB-2 (Homo sapiens, UniProt P04626); assay: Cell proliferation assay, HB4a erbB-2; format: cell-based; conditions: 4 days at 37° C., methylene blue staining
Method: The cell proliferation assay uses an immortalised human breast epithelial cell line (HB4a) which has been transformed by over-expression of c-erbB-2. Growth of these cells in low serum is dependent upon the c-erbB-2 tyrosine kinase activity. […] Cells are plated at 3000/ well in 96-well plates in 0.1 ml medium and allowed to attach overnight. test compound is added in 0.1 ml medium, with a final concentration of 0.5% DMSO, and the plates incubated for 4 days at 37° C. The cells are then examined microscopically for evidence of morphological detransformation and cell mass is estimated by staining with methylene blue and measuring the absorbance at 620 nm. […] Activity against a range of naturally occurring EGFr or c-erbB-2 over-expressing human tumour cell lines (BT474-breast, HN5-head and neck, N87-gastric and Calu3-lung) is assessed with selected compounds by the same methodology.

[4] = system: HB4a cell line transfected with ras; assay: Cell proliferation assay, HB4a ras; format: cell-based; conditions: Homo sapiens, 96 h, 4 days at 37° C., methylene blue staining, general toxicity control

CC(CN(C)C)NCc1ccc(-c2ccc3ncnc(Nc4ccc(OCc5ccccc5)cc4)c3c2)o1 (stereo not shown) [Example 12, N2-(5-(4-(4-Benzyloxy-phenylamino)-quinazolin-6-yl)-furan-2-ylmethyl)-N1,N1-dimethyl-propane-1,2-diamine]
pIC50 [1]: 6.92
pIC50 [2]: 5.85
GI50 [3]: 840 nM
pIC50 [4]: 5.60
